The test addresses Heterochromatin Protein 1 alpha (HP1α) (rat (endogenous in primary cortical neurons)) (UniProt B2RYU7). The test is described as follows: co-IP; whole-cell RIPA extracts of 9-DIV primary rat cortical neurons; 300 ug protein incubated overnight at 4 °C with HP1α antibody (CST #2616), magnetic beads (Active Motif Universal Magnetic Co-IP kit), blot for STAT3 (CST #4904); cells treated 30 min with water or 0.7 nM BDNF, with 1 h pretreatment with DMSO, 10 uM WP1066 or 10 uM Ruxolitinib.

Protein sequences, listed by entry. Tags and fused reporters are not part of them.
UniProt B2RYU7: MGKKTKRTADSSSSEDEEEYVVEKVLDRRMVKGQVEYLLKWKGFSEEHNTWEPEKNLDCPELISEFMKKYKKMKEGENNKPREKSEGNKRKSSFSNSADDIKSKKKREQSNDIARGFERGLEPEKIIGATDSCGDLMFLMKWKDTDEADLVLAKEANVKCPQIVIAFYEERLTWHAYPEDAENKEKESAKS
UniProt P52631: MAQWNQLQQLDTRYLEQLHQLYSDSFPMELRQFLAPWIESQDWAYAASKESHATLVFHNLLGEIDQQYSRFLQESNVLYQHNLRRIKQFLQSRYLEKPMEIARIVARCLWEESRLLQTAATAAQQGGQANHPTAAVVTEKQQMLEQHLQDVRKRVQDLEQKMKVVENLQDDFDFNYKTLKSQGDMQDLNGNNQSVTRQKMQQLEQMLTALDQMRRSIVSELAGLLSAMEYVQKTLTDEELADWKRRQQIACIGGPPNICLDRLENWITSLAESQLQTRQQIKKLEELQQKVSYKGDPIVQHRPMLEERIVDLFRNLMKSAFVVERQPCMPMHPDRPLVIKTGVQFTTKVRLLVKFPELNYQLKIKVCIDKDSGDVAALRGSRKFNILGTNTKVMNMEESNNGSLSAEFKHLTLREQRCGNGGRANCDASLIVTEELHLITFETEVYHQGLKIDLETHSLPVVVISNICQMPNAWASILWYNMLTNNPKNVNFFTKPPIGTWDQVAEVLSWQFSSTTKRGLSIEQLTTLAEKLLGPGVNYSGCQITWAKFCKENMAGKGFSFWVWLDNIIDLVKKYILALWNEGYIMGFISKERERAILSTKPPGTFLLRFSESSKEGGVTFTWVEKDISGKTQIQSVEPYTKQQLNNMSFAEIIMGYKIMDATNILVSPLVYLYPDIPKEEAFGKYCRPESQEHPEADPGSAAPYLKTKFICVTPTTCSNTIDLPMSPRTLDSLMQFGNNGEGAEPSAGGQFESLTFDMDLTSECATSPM

One substance from paper PMC6712773 can be followed below.

These are yes or no findings as the source states them, for the method shown. In cells and extracts the contact can be indirect. Some binding calls cover weakened binding; strength is not graded here.

Take “Signal Transducer and Activator of Transcription 3 (STAT3) (from UniProt P52631 1-770)”: the binding result is on record as “binds”.
